Molecules are shown by their SMILES.

Holding throughout (assay type): biochemical, Medicago truncatula
For data set [1], the system named is MtIOMT3. The experiment in a line: OMT assays with purified recombinant MtIOMT3 (relative activity; HPLC/MS of products). The conditions noted are these: HPLC against standards, tandem MS. From the text:
(§1) Cloning of MtIOMT5 (corresponding to TC 100926, TIGR MtGI v.8) was as described previously (Liu et al., 2005). To obtain a full-length cDNA for MtIOMT2, specific primers designed based upon the M. truncatula genomic sequence were used to amplify the MtIOMT2 coding sequence from M. truncatula root cDNA. The amplified product was cloned into the pGEM®-T easy vector (Promega, Madison Wis.) and sequenced to confirm its identity. MtIOMTs were cloned into the pET28a vector (EMD Biosciences, Inc., San Diego, Calif.) using PCR-based amplification with primers designed to introduce EcoRI and XhoI restriction sites; BamHI and XhoI sites were used for cloning MtIOMT6 due to the presence of an internal EcoRI site in this particular cDNA. Because the EST for MtIOMT8 was missing a start codon, the primer designed to clone MtIOMT8 into pET28a contained an additional 2-nucleotide insertion to generate an ATG start site. All MtIOMTs were expressed as translational fusions to an N-terminal His-tag. Expression of MtIOMTs in E. coli BL21(DE3) and purification by Ni^2+-NTA chromatography were as described (Zubieta et al., 2001). Proteins were dialyzed against 20 mM Tris pH 8.0, 100 mM NaCl, 10% (v/v) glycerol, and 14 mM β-mercaptoethanol. Protein concentration was determined by Bradford assay using BSA as a standard (Bradford, 1976).
(§2) Reactions (200 μl) were performed in 0.1 M potassium phosphate, pH 7.4, 10% (w/v) sucrose, 14 mM β-mercaptoethanol with 10 μM protein, 0.5 mM S-adenosyl-L-methionine, and 80 μM phenolic substrates. All substrates were purchased from Indofine (Hillsborough, N.J.) except 6,7-dihydroxy-4′-methoxyisoflavone, dihydrodaidzein, and vestitol, which were purchased from Apin (Oxfordshire, UK). […] OMT assays were incubated at 30° C. for 2 h and extracted with ethyl acetate. Ethyl acetate extracts were dried under N2 and the resultant material was resuspended in 50-100 μl of methanol. Samples were analyzed on an Agilent 1100 HPLC, equipped with a quaternary pump (model #G1311A), a degasser (model #G1322A), an autosampler (model #G1313A), and a diode array detector (model #G1315A). Samples of 20 μl were applied to an ODS2 reverse-phase column (5 μm particle size, 4.6×250 mm) and eluted in 1% (v/v) phosphoric acid with an increasing gradient of acetonitrile (0-5 min, 25%; 5-35 min, 25-50%; 35-39 min, 50-100%) at a flow rate of 1 ml/min. To resolve the 4′-O-methylated and 7-O-methylated products of genistein, samples were applied to a Phenomenex SYNERGI Polar-RP 80 Å column (4 μm particle size, 4.6×250 mm) and eluted in water with an increasing gradient of acetonitrile (0-5 min, 20%; 5-17 min, 20-38%; 17-33 min, 38%; 33-45 min, 38-56%; 45-46 min, 56-100%) at a flow rate of 1 ml/min. Chiral chromatography was performed as described (Liu et al., 2005).
(§3) For determination of specific activities, reactions (100 μl) were performed in 0.1 M potassium phosphate, pH 7.4, 10% (w/v) sucrose, 14 mM β-mercaptoethanol with 0.2-μg protein, 50 μM S-adenosyl-L-methionine (0.025 μCi ^14C-SAM per reaction), and 100 μM substrate. Reactions were incubated at 30° C. for 15-25 min and stopped by addition of 4 μl of 1N HCl. Products were extracted into 500 μl of ethyl acetate and 400 μl was used for liquid scintillation counting.
An HP 1100 series II LC system (Hewlett-Packard, Palo Alto, Calif.) with a photodiode array detector was coupled to a Bruker Esquire ion-trap mass spectrometer (ITMS) equipped with an electrospray ionization source. A reverse phase, C18, 5 μm, 4.6×250 mm column (J. T. Baker, Phillipsburg, N.J.) was used for separations. The mobile phase consisted of 0.1% (v/v) acetic acid using linear gradients of 5-90% acetonitrile (v/v) in 70 min. The flow rate was 0.8 ml/min, and the temperature of the column was kept at 28° C. Both positive- and negative-ion mass spectra were acquired. […]

For data set [2], the system named is MtIOMT7. As to the kind of experiment: OMT assays with purified recombinant MtIOMT7 (relative activity; HPLC/MS of products). The conditions noted are these: for Position of methylation / reaction products, MtIOMT7: HPLC against standards, tandem MS; for Enantiomer methylated, MtIOMT7: chiral HPLC of unreacted substrate, 2 h.
Excerpt: as §1, §2, §3
An HP 1100 series II LC system (Hewlett-Packard, Palo Alto, Calif.) with a photodiode array detector was coupled to a Bruker Esquire ion-trap mass spectrometer (ITMS) equipped with an electrospray ionization source. A reverse phase, C18, 5 μm, 4.6×250 mm column (J. T. Baker, Phillipsburg, N.J.) was used for separations. The mobile phase consisted of 0.1% (v/v) acetic acid using linear gradients of 5-90% acetonitrile (v/v) in 70 min. The flow rate was 0.8 ml/min, and the temperature of the column was kept at 28° C. Both positive- and negative-ion mass spectra were acquired.

Data set [3] deals with MtIOMT2. As to the kind of experiment: OMT assays with purified recombinant MtIOMT2 (relative activity; HPLC/MS of products). The conditions noted are these: HPLC against standards, tandem MS.
Excerpt: as §1
Reactions (200 μl) were performed in 0.1 M potassium phosphate, pH 7.4, 10% (w/v) sucrose, 14 mM β-mercaptoethanol with 10 μM protein, 0.5 mM S-adenosyl-L-methionine, and 80 μM phenolic substrates. All substrates were purchased from Indofine (Hillsborough, N.J.) except 6,7-dihydroxy-4′-methoxyisoflavone, dihydrodaidzein, and vestitol, which were purchased from Apin (Oxfordshire, UK). […] OMT assays were incubated at 30° C. for 2 h and extracted with ethyl acetate. […] Samples were analyzed on an Agilent 1100 HPLC, equipped with a quaternary pump (model #G1311A), a degasser (model #G1322A), an autosampler (model #G1313A), and a diode array detector (model #G1315A). […]

On to `O=C1c2ccc(O)cc2OC(O)C1c1ccc(O)cc1` (stereo not shown) [2,7,4′-trihydroxyisoflavanone], for which the “Position of methylation / reaction products, MtIOMT3” value in data set [1] is reported as “no products are detected”. Also, the “Position of methylation / reaction products, MtIOMT7” value in data set [2] is reported as “Two minor peaks”.
With `O=c1oc2cc(O)ccc2c2oc3cc(O)ccc3c12` [Coumestrol], the “Position of methylation / reaction products, MtIOMT7” value in data set [2] is 9-O-methylation. For the same compound, the “Position of methylation / reaction products, MtIOMT2” value in data set [3] was 9-position.
Turning to `O=c1c(-c2ccc(O)cc2)coc2cc(O)cc(O)c12` [Genistein], the “Position of methylation / reaction products, MtIOMT3” value in data set [1] is recorded as “biochanin A”.
For the compound `O=C1C[C@@H](c2ccc(O)cc2)Oc2cc(O)ccc21` [Liquiritigenin], in data set [2], the “Position of methylation / reaction products, MtIOMT7” value was 7-O-methyl-liquiritigenin, 4′-O-methyl-liquiritigenin, and 7,4′-O-dimethyl-liquiritigenin; the “Enantiomer methylated, MtIOMT7” value is on record as “preferentially methylates the (2S)-enantiomer”. The “Position of methylation / reaction products, MtIOMT2” value in data set [3] is 7-O-methylated and 7,4′-di-O-methylated products.
`O=C1C[C@@H](c2ccc(O)cc2)Oc2cc(O)cc(O)c21` [Naringenin]: in data set [2], the “Position of methylation / reaction products, MtIOMT7” value was 4′-O-methyl-naringenin; the “Enantiomer methylated, MtIOMT7” value is “both (2S) and (2R)-enantiomers”.
Take `COc1cc2c(=O)c(-c3ccc(O)cc3)coc2cc1O` [Glycitein]: the “Position of methylation / reaction products, MtIOMT3” value in data set [1] is recorded as 7-position. The “Position of methylation / reaction products, MtIOMT7” value in data set [2] was 7-O-methylated.
Regarding `O=C1c2ccc(O)cc2OCC1c1ccc(O)cc1` (stereo not shown) [Dihydrodaidzein], the “Position of methylation / reaction products, MtIOMT3” value in data set [1] is “Primarily 4′-O-methylated product”. Further, in data set [2], the “Position of methylation / reaction products, MtIOMT7” value was 4′-O-methylated, 7-O-methylated, and 4′,7-di-O-methylated products. For the same compound, in data set [3], the “Position of methylation / reaction products, MtIOMT2” value is “both 7 and 4′-O-methylated products”.
With `O=c1c(-c2ccc(O)cc2)coc2cc(O)c(O)cc12` [6,7,4′-trihydroxyisoflavone], the “Position of methylation / reaction products, MtIOMT3” value in data set [1] is recorded as 7-position.
Consider `O=c1c(-c2ccc(O)c(O)c2)coc2cc(O)ccc12` [7,3′,4′-trihydroxyisoflavone], for which the “Position of methylation / reaction products, MtIOMT3” value in data set [1] is recorded as “calycosin”. For the same compound, the “Position of methylation / reaction products, MtIOMT7” value in data set [2] is reported as 7-O-methylated.
On to `O=c1c(-c2ccc(O)cc2)coc2cc(O)ccc12` [Daidzein], for which the “Position of methylation / reaction products, MtIOMT3” value in data set [1] is “Minor 7-O-methyl (isoformononetin) and 4′-O-methyl (formononetin) products”.

Values taken from patent US8809627B2, “Plant isoflavone and isoflavanone O-methyltransferase genes” (The Samuel Roberts Noble Foundation, Inc., priority 2006, dated 2014).
